Laboratory results as given in publication PMC5464768, “ER retention is imposed by COPII protein sorting and attenuated by 4-phenylbutyrate” (eLife, 2017).
Positions count from the first letter of the chain named. Results are given in words; binding and its absence hold for the method and conditions named. Some results given as binding are weak or reduced against the parent protein; the word gives no strength.

Amino acid sequences for entries named in this document (tags omitted).
UniProt Q15436: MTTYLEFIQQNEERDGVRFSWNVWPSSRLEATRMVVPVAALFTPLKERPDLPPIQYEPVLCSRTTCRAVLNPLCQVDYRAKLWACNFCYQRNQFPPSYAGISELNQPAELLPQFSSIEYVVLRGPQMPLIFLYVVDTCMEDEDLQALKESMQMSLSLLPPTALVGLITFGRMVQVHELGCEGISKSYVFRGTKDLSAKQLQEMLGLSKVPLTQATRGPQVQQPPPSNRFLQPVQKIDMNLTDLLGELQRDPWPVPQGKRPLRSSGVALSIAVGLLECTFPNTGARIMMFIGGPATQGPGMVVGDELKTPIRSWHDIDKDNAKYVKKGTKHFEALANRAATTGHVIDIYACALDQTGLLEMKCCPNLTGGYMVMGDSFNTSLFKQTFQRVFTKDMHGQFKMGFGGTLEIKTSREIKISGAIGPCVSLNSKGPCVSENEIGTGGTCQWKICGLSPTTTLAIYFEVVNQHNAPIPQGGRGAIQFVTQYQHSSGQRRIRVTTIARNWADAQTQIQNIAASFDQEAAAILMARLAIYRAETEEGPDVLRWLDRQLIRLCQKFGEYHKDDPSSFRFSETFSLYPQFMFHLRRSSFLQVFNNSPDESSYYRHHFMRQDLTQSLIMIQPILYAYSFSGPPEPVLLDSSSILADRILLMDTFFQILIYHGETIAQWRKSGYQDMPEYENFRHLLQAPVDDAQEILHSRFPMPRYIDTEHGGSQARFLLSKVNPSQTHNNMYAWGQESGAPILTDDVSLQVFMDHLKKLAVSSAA

What was measured:
[1] = target: T1, Sec24d L750W (full-length) (H. sapiens) (UniProt O94855); assay: co-purification; complex purified from High Five insect cell lysate by the N-terminal His6 tag of one subunit (HisTrap HP), then HiTrap Q and Superdex 200 in 20 mM Tris-HCl pH 7.5, 500 mM NaCl, 1 mM DTT
T1 sequence: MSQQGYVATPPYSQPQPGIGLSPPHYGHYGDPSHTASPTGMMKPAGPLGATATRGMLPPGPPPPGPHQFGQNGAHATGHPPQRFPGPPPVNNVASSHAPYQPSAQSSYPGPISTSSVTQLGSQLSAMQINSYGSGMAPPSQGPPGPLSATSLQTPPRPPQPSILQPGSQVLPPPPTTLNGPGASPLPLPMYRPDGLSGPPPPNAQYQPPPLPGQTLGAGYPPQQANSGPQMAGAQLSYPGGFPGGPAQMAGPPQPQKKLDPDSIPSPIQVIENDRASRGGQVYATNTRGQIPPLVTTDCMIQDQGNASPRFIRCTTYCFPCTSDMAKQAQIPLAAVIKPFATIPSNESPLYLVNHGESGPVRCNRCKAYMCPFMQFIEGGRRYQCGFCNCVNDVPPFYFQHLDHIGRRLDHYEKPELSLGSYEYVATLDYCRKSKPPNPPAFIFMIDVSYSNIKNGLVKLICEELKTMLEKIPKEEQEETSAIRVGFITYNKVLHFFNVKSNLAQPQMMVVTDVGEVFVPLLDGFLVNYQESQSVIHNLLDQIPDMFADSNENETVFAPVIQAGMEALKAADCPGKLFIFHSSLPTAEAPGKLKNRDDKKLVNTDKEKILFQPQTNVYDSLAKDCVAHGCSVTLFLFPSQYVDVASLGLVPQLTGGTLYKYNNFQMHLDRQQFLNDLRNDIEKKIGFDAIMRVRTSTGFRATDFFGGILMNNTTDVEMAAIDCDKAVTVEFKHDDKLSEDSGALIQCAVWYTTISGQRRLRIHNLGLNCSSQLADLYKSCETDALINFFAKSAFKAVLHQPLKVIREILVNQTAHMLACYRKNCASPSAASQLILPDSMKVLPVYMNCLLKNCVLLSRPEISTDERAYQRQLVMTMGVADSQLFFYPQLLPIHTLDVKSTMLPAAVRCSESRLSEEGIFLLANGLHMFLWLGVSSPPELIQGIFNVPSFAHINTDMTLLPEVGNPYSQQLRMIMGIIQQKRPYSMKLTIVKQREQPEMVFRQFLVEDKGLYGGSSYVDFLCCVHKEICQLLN

[2] = target: T2, Sec24d (full-length, wild type) (H. sapiens) (UniProt O94855); assay: as above
T2 sequence: T1 sequence with W750L

binding [1]: binds | binding [2]: binds
Substance: Sec23a (full-length) (from UniProt Q15436 1-765)
